{"sequences": {"note": "The chains behind the UniProt entries cited, without tags or fusion partners.", "UniProt Q5CCK4": "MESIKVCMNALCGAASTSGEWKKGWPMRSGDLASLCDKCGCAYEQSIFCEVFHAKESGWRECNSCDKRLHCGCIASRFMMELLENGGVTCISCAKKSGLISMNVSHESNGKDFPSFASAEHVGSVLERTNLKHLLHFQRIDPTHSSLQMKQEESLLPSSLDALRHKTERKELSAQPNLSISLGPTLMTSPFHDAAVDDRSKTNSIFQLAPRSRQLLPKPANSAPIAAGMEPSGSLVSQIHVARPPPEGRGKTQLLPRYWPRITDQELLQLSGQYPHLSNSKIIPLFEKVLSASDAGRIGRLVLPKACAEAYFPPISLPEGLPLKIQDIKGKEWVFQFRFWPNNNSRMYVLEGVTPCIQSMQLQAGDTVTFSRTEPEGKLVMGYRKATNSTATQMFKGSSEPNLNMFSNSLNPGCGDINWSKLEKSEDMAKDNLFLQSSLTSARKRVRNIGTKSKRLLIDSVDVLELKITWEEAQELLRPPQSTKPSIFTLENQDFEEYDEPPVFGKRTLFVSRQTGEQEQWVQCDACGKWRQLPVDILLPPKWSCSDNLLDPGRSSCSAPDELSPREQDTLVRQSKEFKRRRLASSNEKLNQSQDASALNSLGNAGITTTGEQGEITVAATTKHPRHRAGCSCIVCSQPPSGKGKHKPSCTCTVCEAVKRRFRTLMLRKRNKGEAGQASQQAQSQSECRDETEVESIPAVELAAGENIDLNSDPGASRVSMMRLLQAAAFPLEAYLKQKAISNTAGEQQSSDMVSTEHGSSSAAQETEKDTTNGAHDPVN"}, "source": "paper doi:10.1101/2019.12.20.885392", "molecules": {"B1": {"name": "HIGH-LEVEL EXPRESSION OF SUGAR INDUCIBLE2 (HSI2), BiFC fusion (protein, UniProt Q8W4L5 1-790)", "chain": "MFEVKMGSKMCMNASCGTTSTVEWKKGWPLRSGLLADLCYRCGSAYESSLFCEQFHKDQSGWRECYLCSKRLHCGCIASKVTIELMDYGGVGCSTCACCHQLNLNTRGENPGVFSRLPMKTLADRQHVNGESGGRNEGDLFSQPLVMGGDKREEFMPHRGFGKLMSPESTTTGHRLDAAGEMHESSPLQPSLNMGLAVNPFSPSFATEAVEGMKHISPSQSNMVHCSASNILQKPSRPAISTPPVASKSAQARIGRPPVEGRGRGHLLPRYWPKYTDKEVQQISGNLNLNIVPLFEKTLSASDAGRIGRLVLPKACAEAYFPPISQSEGIPLKIQDVRGREWTFQFRYWPNNNSRMYVLEGVTPCIQSMMLQAGDTVTFSRVDPGGKLIMGSRKAANAGDMQGCGLTNGTSTEDTSSSGVTENPPSINGSSCISLIPKELNGMPENLNSETNGGRIGDDPTRVKEKKRTRTIGAKNKRLLLHSEESMELRLTWEEAQDLLRPSPSVKPTIVVIEEQEIEEYDEPPVFGKRTIVTTKPSGEQERWATCDDCSKWRRLPVDALLSFKWTCIDNVWDVSRCSCSAPEESLKELENVLKVGREHKKRRTGESQAAKSQQEPCGLDALASAAVLGDTIGEPEVATTTRHPRHRAGCSCIVCIQPPSGKGRHKPTCGCTVCSTVKRRFKTLMMRRKKKQLERDVTAAEDKKKKDMELAESDKSKEEKEVNTARIDLNSDPYNKEDVEAVAVEKEESRKRAIGQCSGVVAQDASDVLGVTELEGEGKNVREEPRVSS"}, "B2": {"name": "LIKE HETEROCHROMATIN PROTEIN1 (LHP1), BiFC fusion (protein, UniProt Q946J8 1-445)", "chain": "MKGASGAVKKKPQVLNEAGEAETAVETVGESRKISGDGGFGSDDGGGGGGGGSGESILREIGDDRPTEDGDEEEEEDEDEDDGGDEEDEEGEGEGGQEERPKLDEGFYEIEAIRRKRVRKGKVQYLIKWRGWPETANTWEPLENLQSIADVIDAFEGSLKPGKPGRKRKRKYAGPHSQMKKKQRLTSTSHDATEKSDSSTSLNNSSLPDIPDPLDLSGSSLLNRDVEAKNAYVSNQVEANSGSVGMARQVRLIDNEKEYDPTLNELRGPVNNSNGAGCSQGGGIGSEGDNVRPNGLLKVYPKELDKNSRFIGAKRRKSGSVKRFKQDGSTSNNHTAPTDQNLTPDLTTLDSFGRIARMGNEYPGVMENCNLSQKTKIEELDITKILKPMSFTASVSDNVQEVLVTFLALRSDGKEALVDNRFLKAHNPHLLIEFYEQHLKYNRTP"}, "B3": {"name": "LHP1-myc, for co-immunoprecipitation (protein, UniProt Q946J8 1-445)", "chain": "B2 chain"}, "B4": {"name": "CURLY LEAF (CLF), BiFC fusion (protein, UniProt P93831 1-902)", "chain": "MASEASPSSSATRSEPPKDSPAEERGPASKEVSEVIESLKKKLAADRCISIKKRIDENKKNLFAITQSFMRSSMERGGSCKDGSDLLVKRQRDSPGMKSGIDESNNNRYVEDGPASSGMVQGSSVPVKISLRPIKMPDIKRLSPYTTWVFLDRNQRMTEDQSVVGRRRIYYDQTGGEALICSDSEEEAIDDEEEKRDFLEPEDYIIRMTLEQLGLSDSVLAELASFLSRSTSEIKARHGVLMKEKEVSESGDNQAESSLLNKDMEGALDSFDNLFCRRCLVFDCRLHGCSQDLIFPAEKPAPWCPPVDENLTCGANCYKTLLKSGRFPGYGTIEGKTGTSSDGAGTKTTPTKFSSKLNGRKPKTFPSESASSNEKCALETSDSENGLQQDTNSDKVSSSPKVKGSGRRVGRKRNKNRVAERVPRKTQKRQKKTEASDSDSIASGSCSPSDAKHKDNEDATSSSQKHVKSGNSGKSRKNGTPAEVSNNSVKDDVPVCQSNEVASELDAPGSDESLRKEEFMGETVSRGRLATNKLWRPLEKSLFDKGVEIFGMNSCLIARNLLSGFKSCWEVFQYMTCSENKASFFGGDGLNPDGSSKFDINGNMVNNQVRRRSRFLRRRGKVRRLKYTWKSAAYHSIRKRITEKKDQPCRQFNPCNCKIACGKECPCLLNGTCCEKYCGCPKSCKNRFRGCHCAKSQCRSRQCPCFAADRECDPDVCRNCWVIGGDGSLGVPSQRGDNYECRNMKLLLKQQQRVLLGISDVSGWGAFLKNSVSKHEYLGEYTGELISHKEADKRGKIYDRENCSFLFNLNDQFVLDAYRKGDKLKFANHSPEPNCYAKVIMVAGDHRVGIFAKERILAGEELFYDYRYEPDRAPAWAKKPEAPGSKKDENVTPSVGRPKKLA"}, "B5": {"name": "CURLY LEAF (CLF), for co-immunoprecipitation (protein, UniProt P93831 1-902)", "chain": "B4 chain"}, "B6": {"name": "HSI2, yeast two-hybrid fusion (protein, UniProt Q8W4L5 1-790)", "chain": "B1 chain"}}, "key": {"[1]": {"target": "HSL1, yeast two-hybrid fusion (Arabidopsis thaliana) (UniProt Q5CCK4)", "experiment": "two-hybrid"}, "[2]": {"target": "T1, HSI2, yeast two-hybrid fusion (Arabidopsis thaliana) (UniProt Q8W4L5)", "T1 sequence": "B1 chain", "experiment": "two-hybrid"}, "[3]": {"target": "HSI2-LIKE1 (HSL1), BiFC fusion (Arabidopsis thaliana) (UniProt Q5CCK4)", "experiment": "split reporter"}, "[4]": {"target": "T2, HIGH-LEVEL EXPRESSION OF SUGAR INDUCIBLE2 (HSI2), BiFC fusion (Arabidopsis thaliana) (UniProt Q8W4L5)", "T2 sequence": "B1 chain", "experiment": "split reporter"}, "[5]": {"target": "HSL1-GFP, for co-immunoprecipitation (Arabidopsis thaliana) (UniProt Q5CCK4)", "experiment": "co-IP"}, "[6]": {"target": "T3, HSI2-GFP, for co-immunoprecipitation (Arabidopsis thaliana) (UniProt Q8W4L5)", "T3 sequence": "B1 chain", "experiment": "co-IP"}}, "note": "These are yes or no findings as the source states them, for the method shown. For part of these data: Binding seen in cells or lysates may run through a third protein. Some results given as binding are weak or reduced against the parent protein; the word gives no strength. Tags and fused reporters may be left off the sequences shown."}
{"molecule": "HSI2mPHD, yeast two-hybrid fusion (from UniProt Q8W4L5 1-790)", "values": [{"measurement": "binding", "setting": "[1]", "value": "no binding"}, {"measurement": "binding", "setting": "[2]", "value": "no binding"}]}
{"molecule": "HSI2-LIKE1 (HSL1), BiFC fusion (from UniProt Q5CCK4 1-780)", "values": [{"measurement": "binding", "setting": "[3]", "value": "binds"}]}
{"molecule": "B1", "values": [{"measurement": "binding", "setting": "[4]", "value": "binds"}, {"measurement": "binding", "setting": "[3]", "value": "binds"}]}
{"molecule": "B2", "values": [{"measurement": "binding", "setting": "[4]", "value": "binds"}, {"measurement": "binding", "setting": "[3]", "value": "binds"}]}
{"molecule": "B3", "values": [{"measurement": "binding", "setting": "[5]", "value": "binds"}, {"measurement": "binding", "setting": "[6]", "value": "binds"}]}
{"molecule": "B4", "values": [{"measurement": "binding", "setting": "[4]", "value": "binds"}, {"measurement": "binding", "setting": "[3]", "value": "binds"}]}
{"molecule": "B5", "values": [{"measurement": "binding", "setting": "[5]", "value": "binds"}, {"measurement": "binding", "setting": "[6]", "value": "binds"}]}
{"molecule": "B6", "values": [{"measurement": "binding", "setting": "[1]", "value": "binds"}, {"measurement": "binding", "setting": "[2]", "value": "binds"}]}
